Test [1] has as its target T1, CD30 (UniProt P28908 19-595, limits assumed).
T1 construct: whole, on cells; also called CD30 on CD19-/CD30+ KARPAS-299 cells
T1 sequence (looked up): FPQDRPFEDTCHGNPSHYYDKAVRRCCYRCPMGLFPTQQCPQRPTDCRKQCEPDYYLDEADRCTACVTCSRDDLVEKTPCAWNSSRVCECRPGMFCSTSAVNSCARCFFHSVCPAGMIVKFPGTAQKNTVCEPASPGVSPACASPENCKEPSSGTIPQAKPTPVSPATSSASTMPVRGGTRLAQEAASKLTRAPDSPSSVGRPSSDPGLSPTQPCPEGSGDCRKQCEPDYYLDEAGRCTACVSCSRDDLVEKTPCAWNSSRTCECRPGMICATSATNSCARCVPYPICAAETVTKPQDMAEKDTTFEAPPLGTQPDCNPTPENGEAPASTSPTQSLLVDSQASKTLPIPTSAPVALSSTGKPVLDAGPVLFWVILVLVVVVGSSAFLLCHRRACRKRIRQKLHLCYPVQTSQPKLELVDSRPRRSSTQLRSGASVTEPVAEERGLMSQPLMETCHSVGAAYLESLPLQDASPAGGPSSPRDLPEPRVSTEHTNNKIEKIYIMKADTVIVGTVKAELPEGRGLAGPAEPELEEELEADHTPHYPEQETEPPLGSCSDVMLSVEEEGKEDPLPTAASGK
The test can be described thus: flow cytometry on Karpas-299 cells. As to the method: (§1) Single-positive CD19+/CD30− Raji and CD19-/CD30+ KARPAS-299 cells as well as double-positive CD19+/CD30+ MEC-1 were stained with serial dilutions of the trispecific antibody molecules and cell surface bound antibodies were detected by mAb anti-His followed by FITC-conjugated goat anti-mouse IgG. Mean fluorescence intensities determined by flow cytometry were used to calculate KD values by non-linear regression. KD values for trispecific antibody molecules were determined in two independent experiments. […]
(§2) After repeated washing with FACS buffer, cell-bound antibodies were detected with 10 μg/mL anti-His mAb 13/45/31-2 (Dianova, Hamburg, Germany, cat.: DIA910-1MG) followed by 15 μg/mL FITC-conjugated goat anti-mouse antibody (Dianova, cat.: 115-095-062). […] The fluorescence of 2-5×10³ living cells was measured using a Beckman-Coulter FC500 MPL flow cytometer using the MXP software (Beckman-Coulter, Krefeld, Germany) or a Millipore Guava EasyCyte flow cytometer (Merck Millipore, Schwalbach, Germany). Mean fluorescence intensities of the cell samples were calculated using CXP software (Beckman-Coulter) or Incyte software (Merck Millipore, Schwalbach, Germany). […]
In general terms: In flow cytometry, cells or beads pass a laser one at a time.

In test [2] the target is T1, CD30. The test can be described thus: flow cytometry on KARPAS-299 cells, anti-His detection. As to the method:
as §1, §2

Among the data in US20190040155A1 (AFFIMED, published 2019) are binding values, retold here.

Results are given in words; binding and its absence hold for the method and conditions named. Some results given as binding are weak or reduced against the parent protein; the word gives no strength.

B1: aTriFlex_103 (protein)
chain 1: SYVLTQPPSVSVAPGQTARITCGGNNIGSKTVHWYQQKPGQAPVLVVYDDSDRPSGIPERFSGSNSGNTATLTISRVEAGDEADYYCQVGTDWSDHLQVFGGGTKLTVLGGSGGSGGSGGSGGSGGSGGSEVQLVQSGAEVKKPGESLKISCKGSGYSFTSNWIGWVRQMPGKGLEWMGMIWPGDSDTMYSPSFQGQVTISADESINTAYLQWSSLKASDTAMYYCARRETTTVGRYYYAMDYWGQGTLVTVSSGGSGGSGGSSYVLTQPSSVSVAPGQTATISCGGHNIGSKNVHWYQQRPGQSPVLVIYQDNKRPSGIPERFSGSNSGNTATLTISGTQAMDEADYYCQVWDNYSVLFGGGTKLTVLGGSGGSGGSSYVLTQPSSVSVAPGQTATISCGGHNIGSKNVHWYQQRPGQSPVLVIYQDNKRPSGIPERFSGSNSGNTATLTISGTQAMDEADYYCQVWDNYSVLFGGGTKLTVLGGSGGSGGSQVQLQQSGAELARPGASVKMSCKASGYTFTTYTIHWVRQRPGHDLEWIGYINPSSGYSDYNQNFKGKTTLTADKSSNTAYMQLNSLTSEDSAVYYCARRADYGNYEYTWFAYWGQGTTVTVSSGGSGGSGGSGGSGGSGGSDIVMTQSPKFMSTSVGDRVTVTCKASQNVGTNVAWFQQKPGQSPKVLIYSASYRYSGVPDRFTGSGSGTDFTLTISNVQSEDLAEYFCQQYHTYPLTFGGGTKLEINAAAGSHHHHHH
chain 2: QVQLVQSGAEVKKPGESLKVSCKASGYTFTSYYMHWVRQAPGQGLEWMGIINPSGGSTSYAQKFQGRVTMTRDTSTSTVYMELSSLRSEDTAVYYCARGSAYYYDFADYWGQGTLVTVSSGGSGGSGGSQVQLVQSGAEVKKPGESLKVSCKASGYTFTSYYMHWVRQAPGQGLEWMGIINPSGGSTSYAQKFQGRVTMTRDTSTSTVYMELSSLRSEDTAVYYCARGSAYYYDFADYWGQGTLVTVSSAAAGSDYKDDDDK
For the molecule B1, the binding entry with CD30 [1] and with CD30 [2] was “binds” throughout.
